The list does not hold the whole screen: it gathers some chemical classes. Other doses and runs of a compound may be missing. T/C: endpoint of the treated group in % of that of the vehicle group. For survival time, the PubChem record calls one and a half times the control and up active, and a quarter to a half above the control has no call in these data; cut-offs in other NCI protocols can differ. Some entries show no survivor count and are marked so; the dose need not have been tolerated. Schedule codes are those of the source, taken here to give the interval after Q, in days (D) or hours (H), and the number of doses after X. Some doses were run more than once; their values stand side by side, smallest first.
System: BDF1 mice, B16 melanoma ip, median survival T/C
Assay: NCI In Vivo Anticancer Drug Screen. Data for tumor model B16 Melanoma (intraperitoneal) in B6D2F1 (BDF1) mice
Conditions: T/C endpoint: median survival time, higher T/C = longer survival
Method: The antitumor activity of compounds was measured in mice bearing transplantable tumors. Survival or tumor size were measured and the results are expressed as the measurement made in the treated group (T) divided by the measurement made in the vehicle treated control group (C). The tumor model used in this assay is B16 Melanoma (intraperitoneal) in B6D2F1 (BDF1) mice

[1] = dose: 1.25 mg/kg/injection, schedule: Q01DX009 (ip), vehicle: saline
[2] = dose: 2.5 mg/kg/injection, schedule: Q01DX009 (ip), vehicle: saline
[3] = dose: 5.0 mg/kg/injection, schedule: Q01DX009 (ip), vehicle: saline
[4] = dose: 1.0 mg/kg/injection, schedule: Q01DX009 (ip), vehicle: saline

For `CC(Cl)CNCC(C)Cl` (configuration not stated), the T/C (dose: 25.0 mg/kg/injection, schedule: Q01DX009 (ip), vehicle: saline) was 106 % of control [survivor count not shown], the T/C (dose: 25.0 mg/kg/injection, schedule: Q04DX003 (ip), vehicle: saline) was 94 % of control [survivor count not shown] and the T/C (dose: 50.0 mg/kg/injection, schedule: Q01DX009 (ip), vehicle: saline) was 120 % of control [survivor count not shown]. For the same compound, the T/C (dose: 50.0 mg/kg/injection, schedule: Q04DX003 (ip), vehicle: saline) was 115 % of control [survivor count not shown].
For `NC1CCCCC1.NP(=O)(O)N(CCCl)CCCl`, the T/C (dose: 6.25 mg/kg/injection, schedule: Q01DX009 (ip), vehicle: water) was 137 % of control [survivor count not shown], the T/C (dose: 12.5 mg/kg/injection, schedule: Q01DX009 (ip), vehicle: water) was 156 % of control [survivor count not shown] and the T/C (dose: 25.0 mg/kg/injection, schedule: Q01DX001 (ip), vehicle: water) was 121 % of control [survivor count not shown]. The T/C (dose: 25.0 mg/kg/injection, schedule: Q01DX009 (ip), vehicle: water) was 182 % of control [survivor count not shown], the T/C (dose: 25.0 mg/kg/injection, schedule: Q04DX003 (ip), vehicle: water) was 184 % of control [survivor count not shown] and the T/C (dose: 25.0 mg/kg/injection, schedule: Q08DX002 (ip), vehicle: water) was 147 % of control [survivor count not shown]. The T/C (dose: 50.0 mg/kg/injection, schedule: Q01DX001 (ip), vehicle: water) was 126 % of control [survivor count not shown], the T/C (dose: 50.0 mg/kg/injection, schedule: Q04DX003 (ip), vehicle: water) was 155 % of control [survivor count not shown] and the T/C (dose: 50.0 mg/kg/injection, schedule: Q08DX002 (ip), vehicle: water) was 167 % of control [survivor count not shown]. For the same compound, the T/C (dose: 100.0 mg/kg/injection, schedule: Q01DX001 (ip), vehicle: water) was 144 % of control [survivor count not shown] and the T/C (dose: 100.0 mg/kg/injection, schedule: Q08DX002 (ip), vehicle: water) was 231 % of control [survivor count not shown].
For `O=S=NN(CCCl)CCCl`, the T/C (dose: 0.3 mg/kg/injection, schedule: Q01DX009 (ip), vehicle: saline) was 102 % of control [survivor count not shown], the T/C (dose: 0.63 mg/kg/injection, schedule: Q01DX009 (ip), vehicle: saline) was 97 % of control [survivor count not shown] and the T/C [1] was 102 % of control [survivor count not shown]. For the same compound, the T/C [2] was 111 % of control [survivor count not shown] and the T/C [3] was 120 % of control [survivor count not shown].
For `ClCCN(CCCl)c1ccc(Cl)cc1`, the T/C (dose: 12.5 mg/kg/injection, schedule: Q01DX009 (ip), vehicle: Klucel (hydroxypropylcellulose) (HPC)) was 95 % of control [survivor count not shown], the T/C (dose: 25.0 mg/kg/injection, schedule: Q01DX009 (ip), vehicle: Klucel (hydroxypropylcellulose) (HPC)) was 93 % of control [survivor count not shown] and the T/C (dose: 50.0 mg/kg/injection, schedule: Q01DX009 (ip), vehicle: Klucel (hydroxypropylcellulose) (HPC)) was 97 % of control [survivor count not shown]. For the same compound, the T/C (dose: 100.0 mg/kg/injection, schedule: Q01DX009 (ip), vehicle: Klucel (hydroxypropylcellulose) (HPC)) was 93 % of control [survivor count not shown], the T/C (dose: 200.0 mg/kg/injection, schedule: Q01DX009 (ip), vehicle: Klucel (hydroxypropylcellulose) (HPC)) was 102 % of control [survivor count not shown] and the T/C (dose: 400.0 mg/kg/injection, schedule: Q01DX009 (ip), vehicle: Klucel (hydroxypropylcellulose) (HPC)) was 108 % of control [survivor count not shown].
With `CC1(C)NC(=O)N(CCN(CCCl)CCCl)C1=O` the T/C (dose: 0.38 mg/kg/injection, schedule: Q01DX009 (ip), vehicle: saline with Tween-80) was 115 % of control [survivor count not shown], the T/C (dose: 0.68 mg/kg/injection, schedule: Q01DX009 (ip), vehicle: saline) was 125 % of control [survivor count not shown] and the T/C (dose: 0.75 mg/kg/injection, schedule: Q01DX009 (ip), vehicle: saline with Tween-80) was 112 % of control [survivor count not shown]. The T/C (dose: 0.78 mg/kg/injection, schedule: Q01DX009 (ip), vehicle: Klucel (hydroxypropylcellulose) (HPC)) was 104 % of control [survivor count not shown], the T/C [4] was 112 % of control [survivor count not shown] and the T/C (dose: 1.5 mg/kg/injection, schedule: Q01DX009 (ip), vehicle: saline with Tween-80) was 98 % of control [survivor count not shown]. For the same compound, the T/C (dose: 1.56 mg/kg/injection, schedule: Q01DX009 (ip), vehicle: Klucel (hydroxypropylcellulose) (HPC)) was 121 [survivor count not shown] and 145 % of control [survivor count not shown], the T/C (dose: 3.0 mg/kg/injection, schedule: Q01DX009 (ip), vehicle: saline with Tween-80) was 106 % of control [survivor count not shown] and the T/C (dose: 3.12 mg/kg/injection, schedule: Q01DX009 (ip), vehicle: Klucel (hydroxypropylcellulose) (HPC)) was 127 % of control [survivor count not shown]. For the same compound, the T/C (dose: 6.0 mg/kg/injection, schedule: Q01DX009 (ip), vehicle: saline with Tween-80) was 143 % of control [survivor count not shown], the T/C (dose: 6.0 micrograms/kg/injection, schedule: Q01DX009 (ip), vehicle: Klucel (hydroxypropylcellulose) (HPC)) was 105 % of control [survivor count not shown] and the T/C (dose: 12.0 micrograms/kg/injection, schedule: Q01DX009 (ip), vehicle: Klucel (hydroxypropylcellulose) (HPC)) was 110 % of control [survivor count not shown]. The T/C (dose: 25.0 micrograms/kg/injection, schedule: Q01DX009 (ip), vehicle: Klucel (hydroxypropylcellulose) (HPC)) was 104 % of control [survivor count not shown], the T/C (dose: 50.0 micrograms/kg/injection, schedule: Q01DX009 (ip), vehicle: Klucel (hydroxypropylcellulose) (HPC)) was 100 % of control [survivor count not shown] and the T/C (dose: 100.0 micrograms/kg/injection, schedule: Q01DX009 (ip), vehicle: Klucel (hydroxypropylcellulose) (HPC)) was 101 % of control [survivor count not shown].
`O=C(O)CCCCc1ccc(N(CCCl)CCCl)cc1` was tested, and the T/C (dose: 3.13 mg/kg/injection, schedule: Q01DX009 (ip), vehicle: saline with Tween-80) was 110 % of control [survivor count not shown], the T/C (dose: 6.25 mg/kg/injection, schedule: Q01DX009 (ip), vehicle: saline with Tween-80) was 100 % of control [survivor count not shown] and the T/C (dose: 6.25 mg/kg/injection, schedule: Q04DX003 (ip), vehicle: saline with Tween-80) was 113 % of control [survivor count not shown]. The T/C (dose: 12.5 mg/kg/injection, schedule: Q01DX009 (ip), vehicle: saline with Tween-80) was 110 [survivor count not shown] and 115 % of control [survivor count not shown], the T/C (dose: 12.5 mg/kg/injection, schedule: Q04DX003 (ip), vehicle: saline with Tween-80) was 105 % of control [survivor count not shown] and the T/C (dose: 25.0 mg/kg/injection, schedule: Q04DX003 (ip), vehicle: saline with Tween-80) was 97 [survivor count not shown] and 121 % of control [survivor count not shown].
For `CC(C(=O)O)N(CCCl)CCCl` (configuration not stated), the T/C (dose: 0.12 mg/kg/injection, schedule: Q01DX009 (ip), vehicle: saline) was 92 % of control [survivor count not shown], the T/C (dose: 0.25 mg/kg/injection, schedule: Q01DX009 (ip), vehicle: saline) was 97 [survivor count not shown] and 133 % of control [survivor count not shown] and the T/C (dose: 0.5 mg/kg/injection, schedule: Q01DX009 (ip), vehicle: saline) was 119 [survivor count not shown] and 135 % of control [survivor count not shown]. The T/C [4] was 119 [survivor count not shown] and 147 % of control [survivor count not shown], the T/C [1] was 155 % of control [survivor count not shown] and the T/C (dose: 2.0 mg/kg/injection, schedule: Q01DX009 (ip), vehicle: saline) was 161 % of control [survivor count not shown]. The T/C [2] was 180 [survivor count not shown] and 185 % of control [survivor count not shown], the T/C [3] was 150 % of control [survivor count not shown] and the T/C (dose: 10.0 mg/kg/injection, schedule: Q01DX009 (ip), vehicle: saline) was 168 % of control [survivor count not shown]. For the same compound, the T/C (dose: 20.0 mg/kg/injection, schedule: Q01DX009 (ip), vehicle: saline) was 213 % of control [survivor count not shown].

— PubChem BioAssay AID192 (DTP/NCI, 2004)
